The supplement of paper PMC10398353
Structures can show the parent of a compound that is named as a salt. ± gives the standard deviation of the averaged measurements. This is one part of the list. Single values of this set are uncertain.

test system: Salmonella enterica serovar Typhimurium ST313 D23580; assay: normalized bacterial growth (OD600 20 h minus 0 h, interquartile-mean normalized) (fraction of plate interquartile mean); higher = more bacterial growth (less inhibition); settings: LPM (pH 5.8, low phosphate, low Mg2+), concentration: 10 µM, temperature: 37 °C

Q: How did the normalized bacterial growth turn out when `O=C1Nc2ccccc2/C1=C1/Nc2ccccc2C1=O` was run?
A: 1.16

Q: For `N=C(N)NC(=O)Cc1c(Cl)cccc1Cl` [Guanfacine hydrochloride], which normalized bacterial growth is on record?
A: 0.887

Q: How did the normalized bacterial growth turn out when `CN1C[C@H](O)[C@@H](O)[C@H](O)[C@H]1CO` [N-Methyl-1-deoxynojirimycin] was run?
A: 1.09

Q: For `OC(CN1CCC(Cc2ccc(F)cc2)CC1)c1ccc(Cl)cc1` (stereo not given) [Eliprodil], which normalized bacterial growth is on record?
A: 0.85

Q: How did the normalized bacterial growth turn out when `COc1ccc([C@@H]2CC(=O)c3c(O)cc(O[C@@H]4O[C@H](CO[C@@H]5O[C@@H](C)[C@H](O)[C@@H](O)[C@H]5O)[C@@H](O)[C@H](O)[C@H]4O)cc3O2)cc1` was run?
A: 1.25

Q: How did the normalized bacterial growth turn out when `CN(C)CC/C=C1/c2ccccc2Sc2ccc(Cl)cc21` [Chlorprothixene hydrochloride] was run?
A: 0.472

Q: How did the normalized bacterial growth turn out when `CN(C)CC/C=C1/c2ccccc2Sc2ccc(Cl)cc21` was run?
A: 0.926

Q: For `CC(=O)O[C@H]1C[C@@H](OC(C)=O)C(C)(C)[C@@H]2C[C@@H](OC(C)=O)[C@]3(C)[C@H](CC[C@@]4(C)[C@H](c5ccoc5)OC(=O)[C@H]5O[C@@]534)[C@@]12C`, which normalized bacterial growth is on record?
A: 0.644

Q: For `CN(C)CCOC(c1ccccc1)c1ccccc1` [Diphenhydramine hydrochloride], which normalized bacterial growth is on record?
A: 0.81

Q: Which normalized bacterial growth does the source give for `C=CCCCCCCCCCCCc1ccco1` here?
A: 1.14

Q: Which normalized bacterial growth does the source give for `COc1ccc(-c2coc3c(O)c(OC)ccc3c2=O)cc1` here?
A: 0.939

Q: With `C[C@]12CC[C@@H]3c4ccc(O)cc4CC[C@H]3[C@@H]1CC[C@@H]2O` [beta-Estradiol] as the molecule, how does the normalized bacterial growth read?
A: 0.913

Q: With `C[C@]12CC[C@@H]3c4ccc(O)cc4CC[C@H]3[C@@H]1CC[C@@H]2O` as the molecule, how does the normalized bacterial growth read?
A: 1.08

Q: For `CCCN(CCC)S(=O)(=O)c1ccc(C(=O)O)cc1`, which normalized bacterial growth is on record?
A: 1.3

Q: For `Cn1cc(NC(=O)c2cc(NC(=O)c3cc(NC=O)cn3C)cn2C)cc1C(=O)NCCC(=N)N`, which normalized bacterial growth is on record?
A: 0.98

Q: `CCN(CC)C(=O)c1cccc(C)c1` was tested. Which normalized bacterial growth did it give?
A: 0.734

Q: `Cc1onc(-c2ccccc2)c1-c1ccc(S(N)(=O)=O)cc1` was tested. Which normalized bacterial growth did it give?
A: 1.08

Q: With `COc1ccc(CCN(C)CCCC(C#N)(c2ccc(OC)c(OC)c2)C(C)C)cc1OC` (stereo not given) [()-Verapamil hydrochloride] as the molecule, how does the normalized bacterial growth read?
A: 0.755

Q: `CCCc1cc(=O)[nH]c(=S)[nH]1` was tested. Which normalized bacterial growth did it give?
A: 0.738

Q: For `CC1=C(CCC(=O)O)c2cc3[nH]c(cc4nc(cc5[nH]c(cc1n2)c(C)c5C(C)O)C(C)=C4C(C)O)c(C)c3CCC(=O)O` (stereo not given), which normalized bacterial growth is on record?
A: 1.05

Q: With `C[N+]1(CCCCC[N+]2(C)CCCC2)CCCC1` [Pentolinium di[L(+)-tartrate]] as the molecule, how does the normalized bacterial growth read?
A: 0.963

Q: For `O=C(Nc1ccccc1)c1cc([N+](=O)[O-])ccc1Cl`, which normalized bacterial growth is on record?
A: 1.17

Q: For `CO/N=C(\C(=O)N[C@@H]1C(=O)N2C(C(=O)OCOC(=O)C(C)(C)C)=C(/C=C\c3scnc3C)CS[C@H]12)c1csc(N)n1`, which normalized bacterial growth is on record?
A: 0.735

Q: How did the normalized bacterial growth turn out when `CN(N=O)C(=O)N[C@H]1C(O)O[C@H](CO)[C@@H](O)[C@@H]1O` (mixture of isomers) was run?
A: 1.39

Q: Which normalized bacterial growth does the source give for `CC(=O)C1=C(O)C=C2Oc3c(C(C)=O)c(O)c(C)c(O)c3[C@@]2(C)C1=O` here?
A: 0.938

Q: Which normalized bacterial growth does the source give for `S=C(S)OC1CC2CC1C1CCCC21` [D-609 potassium] here?
A: 0.973

Q: `Oc1ncnc2[nH]ncc12` [Allopurinol] was tested. Which normalized bacterial growth did it give?
A: 1.11

Q: For `Oc1ncnc2[nH]ncc12`, which normalized bacterial growth is on record?
A: 1.04

Q: `O=[N+]([O-])c1ccc(-c2nc(-c3ccc(F)cc3)c(-c3ccncc3)[nH]2)cc1` was tested. Which normalized bacterial growth did it give?
A: 0.745

Q: How did the normalized bacterial growth turn out when `CC1(C)C(=O)C=C[C@]2(C)[C@H]3CC[C@@]4(C)[C@H](c5ccoc5)OC(=O)[C@H]5O[C@]54[C@]3(C)C(=O)C[C@@H]12` was run?
A: 1.14

Q: How did the normalized bacterial growth turn out when `CCCCCCC[N+](CC)(CC)CCCCc1ccc(Cl)cc1` [Clofilium tosylate] was run?
A: 0.876

Q: `CNCCCC1c2ccccc2C=Cc2ccccc21` [Protriptyline hydrochloride] was tested. Which normalized bacterial growth did it give?
A: 0.846

Q: Which normalized bacterial growth does the source give for `CCOC(=O)C1=C[C@@H](OC(CC)CC)[C@H](NC(C)=O)[C@@H](N)C1` here?
A: 1.12

Q: For `C[C@]12CCC(=O)C=C1CC[C@@H]1[C@@H]2[C@@H](O)C[C@@]2(C)[C@H]1CC[C@]2(O)C(=O)CO` [Hydrocortisone], which normalized bacterial growth is on record?
A: 0.492

Q: How did the normalized bacterial growth turn out when `C[C@]12CCC(=O)C=C1CC[C@@H]1[C@@H]2[C@@H](O)C[C@@]2(C)[C@H]1CC[C@]2(O)C(=O)CO` was run?
A: 0.862

Q: For `N=C(N)NC(=N)Nc1ccccc1`, which normalized bacterial growth is on record?
A: 1.06

Q: For `COc1cccc2c1[C@@H]1CN(CCCCn3c(=O)[nH]c4c(sc5ncc(-c6ccccc6)nc54)c3=O)C[C@@H]1CO2` [Fiduxosin hydrochloride], which normalized bacterial growth is on record?
A: 1.44

Q: With `CN[C@@H]1[C@H](O[C@H]2[C@H](O[C@H]3[C@H](O)[C@@H](O)[C@H](N=C(N)N)[C@@H](O)[C@@H]3N=C(N)N)O[C@@H](C)[C@]2(O)C=O)O[C@@H](CO)[C@H](O)[C@H]1O` [Streptomycin sulfate] as the molecule, how does the normalized bacterial growth read?
A: 1.02

Q: With `CN[C@@H]1[C@H](O[C@H]2[C@H](O[C@H]3[C@H](O)[C@@H](O)[C@H](N=C(N)N)[C@@H](O)[C@@H]3N=C(N)N)O[C@@H](C)[C@]2(O)C=O)O[C@@H](CO)[C@H](O)[C@H]1O` as the molecule, how does the normalized bacterial growth read?
A: 0.941

Q: `C[C@H](N)CO` was tested. Which normalized bacterial growth did it give?
A: 1.28

Q: For `COc1cc(-c2oc3cc(O)ccc3c(=O)c2O)ccc1O`, which normalized bacterial growth is on record?
A: 0.425

Q: For `OCCOCCN1CCN(C2=Nc3ccccc3Sc3ccccc32)CC1`, which normalized bacterial growth is on record?
A: 1.15

Q: How did the normalized bacterial growth turn out when `Cc1cc(O)c(C)c(O)c1C(=O)O` was run?
A: 0.8

Q: `COc1cccc2c1C(=O)c1c(O)c3c(c(O)c1C2=O)C[C@@](O)(C(=O)CO)C[C@@H]3O[C@H]1C[C@H](N)[C@H](O)[C@H](C)O1` [Doxorubicin hydrochloride] was tested. Which normalized bacterial growth did it give?
A: 0.965

Q: `COc1cccc2c1C(=O)c1c(O)c3c(c(O)c1C2=O)C[C@@](O)(C(=O)CO)C[C@@H]3O[C@H]1C[C@H](N)[C@H](O)[C@H](C)O1` was tested. Which normalized bacterial growth did it give?
A: 0.853 ± 0.079

Q: With `Cn1cnc2c(NCc3ccccc3)nc(NCCO)nc21` [Olomoucine] as the molecule, how does the normalized bacterial growth read?
A: 1.18

Q: How did the normalized bacterial growth turn out when `CC1(C)S[C@@H]2[C@H](NC(=O)[C@H](N)c3ccc(O)cc3)C(=O)N2[C@H]1C(=O)O` was run?
A: 1.08

Q: For `CC1(C)S[C@@H]2[C@H](NC(=O)[C@H](N)c3ccc(O)cc3)C(=O)N2[C@H]1C(=O)O` [Amoxicillin], which normalized bacterial growth is on record?
A: 1.12

Q: `CC(=O)Nc1cc2ccccc2oc1=O` [3-Acetamidocoumarin] was tested. Which normalized bacterial growth did it give?
A: 1.09

Q: How did the normalized bacterial growth turn out when `COc1ccc(/C=C/C(=O)O)cc1OC` was run?
A: 1.34

Q: How did the normalized bacterial growth turn out when `CCCCC(=O)O[C@H]1CC[C@H]2[C@@H]3CCc4cc(O)ccc4[C@H]3CC[C@]12C` was run?
A: 1.14

Q: How did the normalized bacterial growth turn out when `O=C(OC[C@H]1O[C@@H](OC(=O)c2cc(O)c(O)c(OC(=O)c3cc(O)c(O)c(O)c3)c2)[C@H](OC(=O)c2cc(O)c(O)c(OC(=O)c3cc(O)c(O)c(O)c3)c2)[C@@H](OC(=O)c2cc(O)c(O)c(OC(=O)c3cc(O)c(O)c(O)c3)c2)[C@@H]1OC(=O)c1cc(O)c(O)c(OC(=O)c2cc(O)c(O)c(O)c2)c1)c1cc(O)c(O)c(OC(=O)c2cc(O)c(O)c(O)c2)c1` was run?
A: 0.709

Q: Which normalized bacterial growth does the source give for `COc1ccc2oc(-c3ccccc3OC)cc(=O)c2c1` here?
A: 0.754

Q: `Fc1ccc(C(c2ccc(F)cc2)N2CCN(C/C=C/c3ccccc3)CC2)cc1` [Flunarizine dihydrochloride] was tested. Which normalized bacterial growth did it give?
A: 0.989

Q: How did the normalized bacterial growth turn out when `CN1CCc2c(c3ccccc3n2Cc2ccccc2)C1` was run?
A: 1.22

Q: Which normalized bacterial growth does the source give for `Cc1oncc1C(=O)Nc1ccc(C(F)(F)F)cc1` [Leflunomide] here?
A: 1.12

Q: With `COc1ccc(C(Cl)=C(c2ccc(OC)cc2)c2ccc(OC)cc2)cc1` as the molecule, how does the normalized bacterial growth read?
A: 1.06

Q: How did the normalized bacterial growth turn out when `O=C(O)c1cccnc1Nc1cccc(C(F)(F)F)c1` [Niflumic acid] was run?
A: 0.858

Q: `Cc1cn(C2C=CC(CO)O2)c(=O)[nH]c1=O` (stereo not given) ["2',3'-didehydro-3'-deoxythymidine"] was tested. Which normalized bacterial growth did it give?
A: 0.938

Q: With `O=C(O)c1cccc(O)c1O` as the molecule, how does the normalized bacterial growth read?
A: 1.01

Q: Which normalized bacterial growth does the source give for `CC(CCc1ccccc1)NCC(O)c1ccc(O)c(C(N)=O)c1` (stereo not given) [Labetalol hydrochloride] here?
A: 1.02

Q: For `CCOC(=O)[C@H](CCc1ccccc1)N[C@@H](C)C(=O)N1Cc2ccccc2C[C@H]1C(=O)O`, which normalized bacterial growth is on record?
A: 0.735

Q: For `Cc1cc(O)c(C=O)c2c1C(=O)Oc1c(C)c(O)c3c(c1O2)C(O)OC3=O` (stereo not given), which normalized bacterial growth is on record?
A: 0.399

Q: For `CN1C(C)(C)CCCC1(C)C` [Pempidine tartrate], which normalized bacterial growth is on record?
A: 0.923

Q: For `Cc1onc(-c2c(Cl)cccc2Cl)c1C(=O)N[C@@H]1C(=O)N2[C@@H]1SC(C)(C)[C@@H]2C(=O)O` [Dicloxacillin sodium salt], which normalized bacterial growth is on record?
A: 0.923

Q: With `Cc1onc(-c2c(Cl)cccc2Cl)c1C(=O)N[C@@H]1C(=O)N2[C@@H]1SC(C)(C)[C@@H]2C(=O)O` as the molecule, how does the normalized bacterial growth read?
A: 0.893

Q: `COc1cc(OC)c(C(C)=O)c(O)c1C` was tested. Which normalized bacterial growth did it give?
A: 1.08

Q: For `CN(C)/N=N/c1[nH]cnc1C(N)=O`, which normalized bacterial growth is on record?
A: 1.06

Q: How did the normalized bacterial growth turn out when `CN(C)/N=N/c1[nH]cnc1C(N)=O` [Dacarbazine] was run?
A: 0.87

Q: `CCCCCC[C@@H]([C@@H](C)O)n1cnc2c(N)ncnc21` [erythro-9-(2-Hydroxy-3-nonyl)adenine hydrochloride] was tested. Which normalized bacterial growth did it give?
A: 0.865

Q: Which normalized bacterial growth does the source give for `C[N+](C)(C)CCCCCC[N+](C)(C)C` [Hexamethonium bromide] here?
A: 1.11

Q: `C[N+](C)(C)CCCCCC[N+](C)(C)C` [Hexamethonium dichloride] was tested. Which normalized bacterial growth did it give?
A: 1.37

Q: `C[N+](C)(C)CCCCCC[N+](C)(C)C` [Hexamethonium dibromide dihydrate] was tested. Which normalized bacterial growth did it give?
A: 1.08

Q: `CC1C(=O)OC2C(O)C34C5CC(C(C)(C)C)C36C(OC(=O)C6O)OC4(C(=O)O5)C12O` (stereo not given) was tested. Which normalized bacterial growth did it give?
A: 1.06

Q: Which normalized bacterial growth does the source give for `CCCCCCCCc1ccc(-c2ccc(C(=O)O)cc2)cc1` here?
A: 1.03

Q: Which normalized bacterial growth does the source give for `CC[N+](C)(C)Cc1ccccc1Br` [Bretylium tosylate] here?
A: 1.19 ± 0.063

Q: Which normalized bacterial growth does the source give for `CN1CCc2cc(O)c(O)cc2C(c2ccccc2)C1` (stereo not given) here?
A: 0.00791

Q: Which normalized bacterial growth does the source give for `CC1(C)CC[C@]2(C)CC[C@]3(C)C(=CC[C@@H]4[C@@]5(C)CC[C@H](O)C(C)(C)[C@@H]5CC[C@]43C)[C@@H]2C1` [beta-AMYRIN] here?
A: 1.17

Q: How did the normalized bacterial growth turn out when `O=c1cc(-c2ccc(O)cc2)oc2cc(O)c([C@@H]3O[C@H](CO)[C@@H](O)[C@H](O)[C@H]3O)c(O)c12` was run?
A: 0.861

Q: With `Cc1cc2c(cc1S(N)(=O)=O)S(=O)(=O)CCC2` [Meticrane] as the molecule, how does the normalized bacterial growth read?
A: 1.13
